Test results taken from publication doi:10.1101/2025.03.04.641150.
These are yes or no findings as the source states them, for the method shown. Some results given as binding are weak or reduced against the parent protein; the word gives no strength.

Sequences of proteins named here, by UniProt entry; tags and fusion partners are left off.
UniProt Q13148: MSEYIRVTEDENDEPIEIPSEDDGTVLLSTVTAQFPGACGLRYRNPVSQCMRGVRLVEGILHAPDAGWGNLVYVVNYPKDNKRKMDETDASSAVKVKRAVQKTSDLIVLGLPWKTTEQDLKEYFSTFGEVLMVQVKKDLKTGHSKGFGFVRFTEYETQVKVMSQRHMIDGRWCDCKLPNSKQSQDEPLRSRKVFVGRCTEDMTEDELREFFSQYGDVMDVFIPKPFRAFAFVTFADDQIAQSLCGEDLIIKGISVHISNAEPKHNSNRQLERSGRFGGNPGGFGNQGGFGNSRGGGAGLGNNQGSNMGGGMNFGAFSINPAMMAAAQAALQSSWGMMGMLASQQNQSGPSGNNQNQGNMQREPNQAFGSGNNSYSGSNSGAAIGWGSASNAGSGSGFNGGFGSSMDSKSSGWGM
UniProt P21926: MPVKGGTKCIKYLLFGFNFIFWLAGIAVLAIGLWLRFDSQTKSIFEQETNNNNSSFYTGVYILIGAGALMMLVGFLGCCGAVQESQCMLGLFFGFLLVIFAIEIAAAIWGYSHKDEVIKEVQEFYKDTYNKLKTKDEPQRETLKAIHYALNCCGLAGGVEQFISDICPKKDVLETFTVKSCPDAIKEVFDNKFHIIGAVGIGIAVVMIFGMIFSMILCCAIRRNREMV
UniProt P35637: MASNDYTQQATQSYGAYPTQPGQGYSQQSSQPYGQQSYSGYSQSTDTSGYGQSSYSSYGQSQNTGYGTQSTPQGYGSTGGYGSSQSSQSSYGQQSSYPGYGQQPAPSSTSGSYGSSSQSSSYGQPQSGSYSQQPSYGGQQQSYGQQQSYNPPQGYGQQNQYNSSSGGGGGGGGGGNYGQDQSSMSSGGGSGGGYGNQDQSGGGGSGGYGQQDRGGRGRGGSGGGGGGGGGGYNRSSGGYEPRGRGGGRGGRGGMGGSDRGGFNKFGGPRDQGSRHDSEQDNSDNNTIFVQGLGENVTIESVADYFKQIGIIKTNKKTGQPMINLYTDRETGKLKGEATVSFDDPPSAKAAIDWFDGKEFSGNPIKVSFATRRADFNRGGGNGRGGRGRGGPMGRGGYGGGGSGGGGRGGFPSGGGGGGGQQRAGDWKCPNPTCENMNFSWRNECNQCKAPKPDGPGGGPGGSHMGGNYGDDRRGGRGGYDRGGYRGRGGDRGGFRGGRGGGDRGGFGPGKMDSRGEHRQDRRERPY
UniProt P06748: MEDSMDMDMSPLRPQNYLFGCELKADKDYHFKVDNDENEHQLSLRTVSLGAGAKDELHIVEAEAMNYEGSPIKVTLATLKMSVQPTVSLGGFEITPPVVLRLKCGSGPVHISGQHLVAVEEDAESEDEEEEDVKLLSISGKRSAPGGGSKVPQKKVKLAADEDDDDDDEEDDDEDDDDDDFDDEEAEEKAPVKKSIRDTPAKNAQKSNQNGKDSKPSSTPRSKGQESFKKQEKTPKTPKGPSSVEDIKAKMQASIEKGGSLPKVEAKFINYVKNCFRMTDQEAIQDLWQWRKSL

Target: TAR DNA-binding protein 43 (TDP-43) (human (endogenous in post-mortem brain tissue)) (UniProt Q13148)
Assay: single-molecule pulldown

Substance: CD9 (from UniProt P21926 1-228)
- binding: binds

Substance: FUS (from UniProt P35637 1-526)
- binding: binds

Substance: nucleophosmin (NPM1) (from UniProt P06748 1-294)
- binding: binds
